PubChem BioAssay AID686938 | Drosophila RNAi Screening Center – 2013
The screen tested about 23,000 reagents; below is an unselected part of those with a known target gene and a result. In the full data, 75 (0.33%) were called active. 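Raw plate signals without normalisation; calls rest on plate z-scores that were not deposited; ratio present for only 364 wells.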 Entries without a mark were called inactive. Not stated in the record: the dose of the treatment.

- Purpose: 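Knock-downs reducing store-operated calcium influx in Drosophila cells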 (primary screen)
- Cell system: Drosophila S2R+ cells
- Knock-down reagent: long dsRNA against Drosophila genes, about 0.25 µg dsRNA per well, roughly 10,000 cells
- Duration: 5 days of knock-down before the calcium assay
- Challenge: thapsigargin (SERCA pump blocker) to empty calcium stores; entry signal taken 4 min after adding it
- Measured: 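Per-well fluo-4 fluorescence in two replicates, unnormalised, measured in resting cells and 4 min after store depletion by the SERCA blocker thapsigargin; ratio of the two present in few wells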
- Direction: calcium entry signal: higher = stronger calcium signal after store depletion; resting calcium signal: higher = higher resting calcium signal
- Call rule: 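Hit if the duplicate-averaged plate z-score for entry over resting signal is under −3; wells with weak total dye signal (Fmax z < −2) or more than 5 off-targets removed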
- Meaning of the calls: active = strongly reduced calcium entry; inactive = no strong reduction

The first 3 records as a preview:
gene knocked down | DRSC id | calcium entry signal, replicate 1 (fluorescence units) | calcium entry signal, replicate 2 (fluorescence units) | resting calcium signal, replicate 1 (fluorescence units) | resting calcium signal, replicate 2 (fluorescence units)
schuy | DRSC10284 | 3.22e7 | 5.44e7 | 1.50e7 | 2.13e7
CG15096 | DRSC06525 | 4.51e7 | 4.20e7 | 2.00e7 | 1.76e7
CG1142 | DRSC12531 | 5.77e7 | 4.96e7 | 2.46e7 | 2.11e7

Results, repeating the preview:
gene knocked down | DRSC id | calcium entry signal, replicate 1 (fluorescence units) | calcium entry signal, replicate 2 (fluorescence units) | resting calcium signal, replicate 1 (fluorescence units) | resting calcium signal, replicate 2 (fluorescence units)
schuy | DRSC10284 | 3.22e7 | 5.44e7 | 1.50e7 | 2.13e7
CG15096 | DRSC06525 | 4.51e7 | 4.20e7 | 2.00e7 | 1.76e7
CG1142 | DRSC12531 | 5.77e7 | 4.96e7 | 2.46e7 | 2.11e7
DCTN5-p25 | DRSC03525 | 4.10e7 | 2.52e7 | 2.00e7 | 1.19e7
sax | DRSC07675 | 3.29e7 | 2.86e7 | 1.49e7 | 1.44e7
Ndg | DRSC06223 | 5.19e7 | 4.21e7 | 2.14e7 | 2.03e7
HPS1 | DRSC06195 | 5.27e7 | 4.28e7 | 2.08e7 | 1.89e7
poe | DRSC03593 | 3.71e7 | – | 2.36e7 | –
Ets21C | DRSC00751 | 2.60e7 | 2.60e7 | 1.31e7 | 1.20e7
Osi15 | DRSC12178 | 3.36e7 | 1.61e7 | 1.56e7 | 8.48e6
Parg | DRSC18696 | 3.80e7 | 4.88e7 | 1.80e7 | 2.16e7
Stip1 | DRSC00756 | 3.82e7 | – | 2.08e7 | –
Cdk12 | DRSC11836 | 3.41e7 | 2.32e7 | 2.78e7 | 1.32e7
Cdk12 | DRSC23323 | 3.04e7 | 4.00e7 | 1.68e7 | 2.11e7
Ugt37E1 | DRSC02248 | 3.56e7 | 2.46e7 | 1.76e7 | 1.23e7
Ptp69D | DRSC11258 | 2.37e7 | 4.04e7 | 1.20e7 | 1.69e7
CG14370 | DRSC14832 | 3.29e7 | 4.65e7 | 1.64e7 | 7.45e7
CG10019 | DRSC00279 | 3.58e7 | 3.83e7 | 1.91e7 | 1.83e7
Crz | DRSC16615 | 2.51e7 | 3.34e7 | 1.27e7 | 4.99e7
CG17349 | DRSC02610 | 4.85e7 | 5.34e7 | 2.48e7 | 2.33e7
PPO3 | DRSC04325 | 3.59e7 | – | 1.92e7 | –
flr | DRSC09787 | 4.15e7 | 6.39e7 | 2.48e7 | 4.06e7
sigmar | DRSC04449 | 3.90e7 | – | 2.06e7 | –
Adgf-D | DRSC16521 | 3.26e7 | 4.93e7 | 1.64e7 | 7.53e7
